Experimental data as given in publication PMC7819943, “Rice protein-binding microarrays: a tool to detect cis-acting elements near promoter regions in rice”.
This is one part of the list.

Chains of the proteins cited; added tags and fusions are not shown.
UniProt Q0JBA9, entry or part of it: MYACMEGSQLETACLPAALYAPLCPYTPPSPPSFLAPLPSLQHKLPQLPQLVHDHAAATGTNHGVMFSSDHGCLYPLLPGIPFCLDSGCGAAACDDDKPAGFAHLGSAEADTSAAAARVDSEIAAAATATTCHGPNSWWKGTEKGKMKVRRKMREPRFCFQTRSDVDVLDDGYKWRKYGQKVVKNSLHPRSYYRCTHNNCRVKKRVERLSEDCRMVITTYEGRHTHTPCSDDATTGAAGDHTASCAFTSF

These sequences were tested against OsWRKY34 (Oryza sativa, UniProt Q0JBA9 1-250) (assay: protein-binding microarray (RPBM); PBS, 2% BSA, 51.3 ng/ul salmon testes DNA, 50 uM zinc acetate, 200 nM TF, 25 C, 1 h; high values mean tight binding). Details: protein: recombinant; tags: N-terminal polyhistidine and DsRed monomer fusion (pET32a); label: CyDye5-dUTP incorporated in the synthesized complementary strand; 3' TTTTT single-stranded linker to array surface; dsDNA, one strand shown.
Outline: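 An Axon 4000B scanner gave the binding signal as per-feature fluorescence intensity in arbitrary units. This followed washing of a custom Agilent array that had been incubated for 1 h at 25 °C with 200 nM protein in PBS, 2% BSA, salmon testes DNA and 50 µM zinc acetate. The proteins were transcription factors fused at the N-terminus to polyhistidine and DsRed, expressed in E. coli BL21-CodonPlus and purified on Ni–NTA.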

Sequence | binding signal
TAGTTGAGGGATCTGTTGTATATGGTTTTGGGGTTGAAGGCGGAGTCACCTAGTGCAG | 11800 fluorescence intensity (a.u.)
CCCGTCGATCCACCGCGGGGACAAGCTCTAGATCTCTCTCCGGAGTCACCTAGTGCAG | 8440 fluorescence intensity (a.u.)
AATTATGACTCTCTTGTGTGTTCCATATATATAAACTGTACGGAGTCACCTAGTGCAG | 8050 fluorescence intensity (a.u.)
CAGCAGTTTAAAACTCCGAACCCCGTTGCATCTCTACCAACGGAGTCACCTAGTGCAG | 8320 fluorescence intensity (a.u.)
TTTTCTATTTCCCACTACTTTTCGTCATTTTTCTAATATTCGGAGTCACCTAGTGCAG | 18100 fluorescence intensity (a.u.)
GTAAACAATATTATCTATATCTACTTTTCTTTTCTTTTTTCGGAGTCACCTAGTGCAG | 8840 fluorescence intensity (a.u.)
AGTAGTTAGCCTACTAGTACCATATATTAGCTCACGCCAACGGAGTCACCTAGTGCAG | 8560 fluorescence intensity (a.u.)
AGGGGCTTGATTCGGTGGAGATTGTGATTTTGCGAGGGCTCGGAGTCACCTAGTGCAG | 10100 fluorescence intensity (a.u.)
CAGCACCAACTCTCGTACGCCGCTGATATACCGTATAAAACGGAGTCACCTAGTGCAG | 8430 fluorescence intensity (a.u.)
TCTATGTGTCTGGCCGGTTTTCTTCTCCATTGAAGTCTATCGGAGTCACCTAGTGCAG | 9080 fluorescence intensity (a.u.)
ACCTCTGGCTCTAGCTCCACCTCTTCTGAAGCTGGAGCCCCGGAGTCACCTAGTGCAG | 8150 fluorescence intensity (a.u.)
CGTGTCGGTGTCTCATCTCTCTCTCTCTTCCCATCCGCCGCGGAGTCACCTAGTGCAG | 8790 fluorescence intensity (a.u.)
CACAGCCAATTCATCGAACACCTTGTCTGCTAACACCATGCGGAGTCACCTAGTGCAG | 8080 fluorescence intensity (a.u.)
CGCGCCTGTCTGTCTCTGTTTGATTGATTCTTCTACGTCGCGGAGTCACCTAGTGCAG | 8610 fluorescence intensity (a.u.)
GGGAATCTCTGTCCAAATAAAGGCCTTTGGCTCATCTCTGCGGAGTCACCTAGTGCAG | 8070 fluorescence intensity (a.u.)
CCGCTCCTCCGCCTCCATTTCCACGACTGCTTCGTCAGGGCGGAGTCACCTAGTGCAG | 8220 fluorescence intensity (a.u.)
GGAGCTGACAATTGGGTCCCAAATTTTTTTATTTTCATTCCGGAGTCACCTAGTGCAG | 8730 fluorescence intensity (a.u.)
AGATCAGAGGGTGTATTGCAGTATTGGGTAGTTGGATATGCGGAGTCACCTAGTGCAG | 8460 fluorescence intensity (a.u.)
CGCCACCTCCGCATTCCGTTCCGACCAGCCGATCGGTTTCCGGAGTCACCTAGTGCAG | 8750 fluorescence intensity (a.u.)
TGTGTATGGGAAATGGTATCTCTTGCTGCACTGTCAGAAACGGAGTCACCTAGTGCAG | 10300 fluorescence intensity (a.u.)
CGGGTACATTGATCCTATCCCTTATCACGGCAACACGCAACGGAGTCACCTAGTGCAG | 8530 fluorescence intensity (a.u.)

Sequence | binding signal
GGTTCCTAACAAACAGTATCCATGAGGTGTTACTTTACGTCGGAGTCACCTAGTGCAG | 8900 fluorescence intensity (a.u.)
CCACGTGGCGGGCGAACCCATCCCTCCCGGCCCCTACCCGCGGAGTCACCTAGTGCAG | 8590 fluorescence intensity (a.u.)
GCCTTTTTCTTCCACCGTTGCGAGTTCTCTCTGCCTGCGCCGGAGTCACCTAGTGCAG | 12800 fluorescence intensity (a.u.)
AAACCCTGGGTTTTCGTATCCAACGTTTGATCATCTGTCTCGGAGTCACCTAGTGCAG | 8310 fluorescence intensity (a.u.)
CCCCGCGCTCGTCTCTTCGCGCCCAGATATTTCACCACGTCGGAGTCACCTAGTGCAG | 13400 fluorescence intensity (a.u.)
CATCTCCCAGATCCGCCTGTCTCCGACCTCCACACCGATGCGGAGTCACCTAGTGCAG | 9790 fluorescence intensity (a.u.)
TTGTCTGGATTCCACAGAATCACGCCTCGGATCTTCTGCGCGGAGTCACCTAGTGCAG | 8150 fluorescence intensity (a.u.)
ATACTCACAGCCCCTATATCTCTCCCTTTTTTTAAAAAAGCGGAGTCACCTAGTGCAG | 9390 fluorescence intensity (a.u.)
CCATTTCCGTTTAGTGACAGATAGTTTATGTGATCAGCTCCGGAGTCACCTAGTGCAG | 9310 fluorescence intensity (a.u.)
GGGGCGCAGGGGAGGGAGGAAAGGAGGCGGAGCACGGCGTCGGAGTCACCTAGTGCAG | 10500 fluorescence intensity (a.u.)
TTGCCGCTGCAGGCGCTGCCGCCGTTGAGCCGACTCGATTCGGAGTCACCTAGTGCAG | 9260 fluorescence intensity (a.u.)
AGGTATCGCAGGATCCTAACCATTCACATGTTGTCGGGGACGGAGTCACCTAGTGCAG | 9040 fluorescence intensity (a.u.)
CTGGGCGTGCCACGTCGACGTCCAGCTCAGCATCACCATACGGAGTCACCTAGTGCAG | 8440 fluorescence intensity (a.u.)
TGACTTGATATTACCTTTTGTCCGGTTTTTATTGTTGTGTCGGAGTCACCTAGTGCAG | 8670 fluorescence intensity (a.u.)
CACACGCGGGTCTTCCTCGTTTGCGCAACTGCATCCACGACGGAGTCACCTAGTGCAG | 8240 fluorescence intensity (a.u.)
CTTGCTGTTACGCACCACATTGATTTACTTTCTTTTTCTTCGGAGTCACCTAGTGCAG | 11600 fluorescence intensity (a.u.)
ACATTCAATTTTATTCATATATCCCTTACCCTTTCATTTGCGGAGTCACCTAGTGCAG | 9360 fluorescence intensity (a.u.)
GTGTCTATGGAGTATATTTTTTCTTTTCTGATTGATTGAACGGAGTCACCTAGTGCAG | 9530 fluorescence intensity (a.u.)
TTAATCAGTTTCTTTAATCGGGTGGTGTCTATTTACTAATCGGAGTCACCTAGTGCAG | 12000 fluorescence intensity (a.u.)
CACACACACAAAACCGCATTACTACTCGATCGCCGGCGTCCGGAGTCACCTAGTGCAG | 11000 fluorescence intensity (a.u.)
TGTGTTCTCCTTGCCGATCCCTTGCGCTAGCCATCTTCCGCGGAGTCACCTAGTGCAG | 9590 fluorescence intensity (a.u.)

Sequence | binding signal
AGTTACCGTGCCGGCTGCATGCTCGATGTAAACAAAGACACGGAGTCACCTAGTGCAG | 8350 fluorescence intensity (a.u.)
AAATCTTAATTGAAGTGTAGTGGTAGTTTGTATGTTAGTTCGGAGTCACCTAGTGCAG | 8380 fluorescence intensity (a.u.)
AAAATGAATTTTGTTTTGATGCTGTTTCATTCAACTGACACGGAGTCACCTAGTGCAG | 9080 fluorescence intensity (a.u.)
CCGGCGGCGGCTTTAGGGTTAGGGTTTTGTTTTTTTAGATCGGAGTCACCTAGTGCAG | 10100 fluorescence intensity (a.u.)
AGTTCAAAATCCATCCGGATCCCACATTCTCTTCCCCAAGCGGAGTCACCTAGTGCAG | 8750 fluorescence intensity (a.u.)
GCCAGTTTGCCACCCTTCCACTCGTTCGCGCTCTCTCTCTCGGAGTCACCTAGTGCAG | 11300 fluorescence intensity (a.u.)
GAACACCACCAAATCCGATCATCTCTCACCTAGCTGCCATCGGAGTCACCTAGTGCAG | 10500 fluorescence intensity (a.u.)
TAGTCTTTTCCATGTCATGTGATCATGTGTGGAGTTGATTCGGAGTCACCTAGTGCAG | 8550 fluorescence intensity (a.u.)
CTCCTTGGGCCGGCGGTGCTCCCGGACAACATCGCCTTCACGGAGTCACCTAGTGCAG | 12700 fluorescence intensity (a.u.)
CAGATTATAATTGTCGACGCTATTTGTGATCCCGTGCATGCGGAGTCACCTAGTGCAG | 8780 fluorescence intensity (a.u.)
GTGCTGCTCTGTTGGATCGCAACGGTATATTTATTTCTATCGGAGTCACCTAGTGCAG | 9540 fluorescence intensity (a.u.)
GCACACCGTCTTCGCAATCTCCTTTGGTCGGCTGCCCAATCGGAGTCACCTAGTGCAG | 8170 fluorescence intensity (a.u.)
AGTGGGGAAGGTGGAGAGGGTGGGTTGGGTGTTAGTACCACGGAGTCACCTAGTGCAG | 14500 fluorescence intensity (a.u.)
CTTTATCTGTGGATGTGTATATGTAGGTGTTGGTTGATCGCGGAGTCACCTAGTGCAG | 8630 fluorescence intensity (a.u.)
CCCGTTTCACTGTGTGTGTGTGTGTGACGTTAACACGCTACGGAGTCACCTAGTGCAG | 8490 fluorescence intensity (a.u.)
TCAATTCCCACGGCCGTACTACTACGTGTCATCGCAATCTCGGAGTCACCTAGTGCAG | 8150 fluorescence intensity (a.u.)
TCGGCCTGTTCGTTCGATCGATCGATCTCTCCCGCTACGCCGGAGTCACCTAGTGCAG | 9680 fluorescence intensity (a.u.)
AAACTAGCTACTTGACCCTAGAGTACTTCTACAACCATCCCGGAGTCACCTAGTGCAG | 8810 fluorescence intensity (a.u.)
TACTCTCATGATTTTCTCTTTGTTCCAGACTTGCCAATCCCGGAGTCACCTAGTGCAG | 9150 fluorescence intensity (a.u.)
TGAAGCAGTCTCACCCACCCGACCCAACCGAACCAACCCGCGGAGTCACCTAGTGCAG | 9490 fluorescence intensity (a.u.)
ACTTTCTTTTTTTCTTTTTAACCTTGACCTTTACTGGCATCGGAGTCACCTAGTGCAG | 8690 fluorescence intensity (a.u.)

Sequence | binding signal
AGCTGGATGATTTTCGCCGCCGCCGCCGCCGTGTTCTTTTCGGAGTCACCTAGTGCAG | 8280 fluorescence intensity (a.u.)
GACCACTCCGAAGCTGTAGACATCAACCTTTGCTGTTATTCGGAGTCACCTAGTGCAG | 8400 fluorescence intensity (a.u.)
ATTATTTTTTTCATTCATGTTCGAAAACCACTTCCGACATCGGAGTCACCTAGTGCAG | 9810 fluorescence intensity (a.u.)
GCATATTTTACATTAGTTTCATTAGCACGTTTGTCATCAACGGAGTCACCTAGTGCAG | 8980 fluorescence intensity (a.u.)
GCCCCGCCGTCGTCTTGCCGCGCCGCTCCTCCTCATCATCCGGAGTCACCTAGTGCAG | 9500 fluorescence intensity (a.u.)
AGCCGCGCCGATTTTGTTCGTTCCGTTTCTAGGAGTAGCACGGAGTCACCTAGTGCAG | 8500 fluorescence intensity (a.u.)
CCCGTGCGGCGCGCACACGTCACTCTACCTAGCTTACACCCGGAGTCACCTAGTGCAG | 10900 fluorescence intensity (a.u.)
CGATTTTTCTGGCGCTGATCGGGCGCCCGATCCCCGGTATCGGAGTCACCTAGTGCAG | 9160 fluorescence intensity (a.u.)
TGTGTGCAATGCCGTGATGATGCGTTTGGAGAGGTGACTCCGGAGTCACCTAGTGCAG | 8040 fluorescence intensity (a.u.)
ATTCAACATCCATGTCATCCTATCTCTATATTTTTTCTATCGGAGTCACCTAGTGCAG | 10400 fluorescence intensity (a.u.)
TGTTAATTCCACATCAGCGCTACGTCAATGCCACGTGGTACGGAGTCACCTAGTGCAG | 8350 fluorescence intensity (a.u.)
AAGAAAAAAAAGAGAGAGGAGTGCATTGCCCGCGTGTCCGCGGAGTCACCTAGTGCAG | 10600 fluorescence intensity (a.u.)
ATTTGTTGCCAAAGTGGTTCTTACCTTTGTTTTTCTTTGACGGAGTCACCTAGTGCAG | 10400 fluorescence intensity (a.u.)
CTGGGCCCAGTTGTTGACTTCCACCTTTGCTTGGTTAGCTCGGAGTCACCTAGTGCAG | 9300 fluorescence intensity (a.u.)
TTGGGATGAGATTTTTTTTTTTTTGTCGAATTCTGACGAACGGAGTCACCTAGTGCAG | 9650 fluorescence intensity (a.u.)
CCCAAGTCAAAGCCCAAGCCCAGCCCAACCAGCGGTGACCCGGAGTCACCTAGTGCAG | 8160 fluorescence intensity (a.u.)
AACCAATCACCGGCCGCGAGCGTCACCCCGGAAAATATAACGGAGTCACCTAGTGCAG | 8280 fluorescence intensity (a.u.)
GGGGCGTCCAGCGAGGCTTCAGTTTAGCTGCTCTCTTTTGCGGAGTCACCTAGTGCAG | 9650 fluorescence intensity (a.u.)
CTCTTGCACAAGGTACTTTTCTTTTTCTTTCTTTATTCTTCGGAGTCACCTAGTGCAG | 9310 fluorescence intensity (a.u.)
AATGGTTTTGTGAGTTGAGGGATGCCATATTATCTTGTTTCGGAGTCACCTAGTGCAG | 8750 fluorescence intensity (a.u.)
TCCCCAACCCTCATCGCTTTCAATGTGTTCGTCTATCTAACGGAGTCACCTAGTGCAG | 10300 fluorescence intensity (a.u.)

In another format: entries from further up
Sequence	binding signal
ATTATTTTTTTCATTCATGTTCGAAAACCACTTCCGACATCGGAGTCACCTAGTGCAG	9810 fluorescence intensity (a.u.)
GCATATTTTACATTAGTTTCATTAGCACGTTTGTCATCAACGGAGTCACCTAGTGCAG	8980 fluorescence intensity (a.u.)
TGTGTGCAATGCCGTGATGATGCGTTTGGAGAGGTGACTCCGGAGTCACCTAGTGCAG	8040 fluorescence intensity (a.u.)
CTGGGCCCAGTTGTTGACTTCCACCTTTGCTTGGTTAGCTCGGAGTCACCTAGTGCAG	9300 fluorescence intensity (a.u.)
TTGGGATGAGATTTTTTTTTTTTTGTCGAATTCTGACGAACGGAGTCACCTAGTGCAG	9650 fluorescence intensity (a.u.)
AACCAATCACCGGCCGCGAGCGTCACCCCGGAAAATATAACGGAGTCACCTAGTGCAG	8280 fluorescence intensity (a.u.)
CTCTTGCACAAGGTACTTTTCTTTTTCTTTCTTTATTCTTCGGAGTCACCTAGTGCAG	9310 fluorescence intensity (a.u.)
